Here are results for 1 substance from publication PMC5843596.

The chains behind the UniProt entries cited, without tags or fusion partners.
UniProt P51532: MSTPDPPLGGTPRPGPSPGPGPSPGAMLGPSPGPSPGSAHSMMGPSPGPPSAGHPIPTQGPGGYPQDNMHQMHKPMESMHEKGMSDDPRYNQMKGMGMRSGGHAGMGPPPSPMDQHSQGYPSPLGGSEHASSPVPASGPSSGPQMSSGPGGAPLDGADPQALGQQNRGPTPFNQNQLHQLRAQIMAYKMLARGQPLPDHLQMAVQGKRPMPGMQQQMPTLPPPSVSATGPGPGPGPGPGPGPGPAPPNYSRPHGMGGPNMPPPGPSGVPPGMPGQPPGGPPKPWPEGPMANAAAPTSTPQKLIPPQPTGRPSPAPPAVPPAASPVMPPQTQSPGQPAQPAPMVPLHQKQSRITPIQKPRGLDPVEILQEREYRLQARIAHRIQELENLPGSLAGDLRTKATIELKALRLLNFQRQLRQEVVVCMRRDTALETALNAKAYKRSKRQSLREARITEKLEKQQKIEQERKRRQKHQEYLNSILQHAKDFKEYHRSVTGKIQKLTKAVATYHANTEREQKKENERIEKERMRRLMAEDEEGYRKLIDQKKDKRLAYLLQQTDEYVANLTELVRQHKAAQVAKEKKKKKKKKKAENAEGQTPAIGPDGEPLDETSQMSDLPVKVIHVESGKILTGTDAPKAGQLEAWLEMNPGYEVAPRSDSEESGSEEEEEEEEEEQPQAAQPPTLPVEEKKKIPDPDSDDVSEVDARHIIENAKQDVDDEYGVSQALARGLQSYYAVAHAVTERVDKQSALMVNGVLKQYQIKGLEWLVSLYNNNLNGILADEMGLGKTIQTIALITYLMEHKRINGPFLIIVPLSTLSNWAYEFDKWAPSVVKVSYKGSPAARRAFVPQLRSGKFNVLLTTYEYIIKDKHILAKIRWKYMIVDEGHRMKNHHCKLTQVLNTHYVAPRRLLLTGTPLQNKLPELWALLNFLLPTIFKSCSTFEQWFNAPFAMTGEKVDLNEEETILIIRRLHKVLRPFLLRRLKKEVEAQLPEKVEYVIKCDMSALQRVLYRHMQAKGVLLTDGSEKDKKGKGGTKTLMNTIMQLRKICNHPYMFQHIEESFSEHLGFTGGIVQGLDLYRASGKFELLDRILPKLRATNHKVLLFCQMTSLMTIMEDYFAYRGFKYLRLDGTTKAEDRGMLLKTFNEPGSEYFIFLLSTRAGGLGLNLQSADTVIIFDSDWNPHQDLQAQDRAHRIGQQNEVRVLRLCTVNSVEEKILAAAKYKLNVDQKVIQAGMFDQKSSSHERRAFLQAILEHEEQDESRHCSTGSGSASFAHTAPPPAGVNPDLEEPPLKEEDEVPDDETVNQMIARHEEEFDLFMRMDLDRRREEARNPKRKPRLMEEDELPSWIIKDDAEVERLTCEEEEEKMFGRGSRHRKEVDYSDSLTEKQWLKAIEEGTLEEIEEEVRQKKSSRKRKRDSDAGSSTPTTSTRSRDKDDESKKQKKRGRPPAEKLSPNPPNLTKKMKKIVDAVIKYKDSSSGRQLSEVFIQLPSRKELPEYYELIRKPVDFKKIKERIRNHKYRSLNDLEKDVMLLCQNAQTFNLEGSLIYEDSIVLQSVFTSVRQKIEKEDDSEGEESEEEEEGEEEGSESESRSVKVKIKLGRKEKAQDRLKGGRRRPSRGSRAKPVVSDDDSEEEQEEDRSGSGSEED
UniProt Q9UKV0: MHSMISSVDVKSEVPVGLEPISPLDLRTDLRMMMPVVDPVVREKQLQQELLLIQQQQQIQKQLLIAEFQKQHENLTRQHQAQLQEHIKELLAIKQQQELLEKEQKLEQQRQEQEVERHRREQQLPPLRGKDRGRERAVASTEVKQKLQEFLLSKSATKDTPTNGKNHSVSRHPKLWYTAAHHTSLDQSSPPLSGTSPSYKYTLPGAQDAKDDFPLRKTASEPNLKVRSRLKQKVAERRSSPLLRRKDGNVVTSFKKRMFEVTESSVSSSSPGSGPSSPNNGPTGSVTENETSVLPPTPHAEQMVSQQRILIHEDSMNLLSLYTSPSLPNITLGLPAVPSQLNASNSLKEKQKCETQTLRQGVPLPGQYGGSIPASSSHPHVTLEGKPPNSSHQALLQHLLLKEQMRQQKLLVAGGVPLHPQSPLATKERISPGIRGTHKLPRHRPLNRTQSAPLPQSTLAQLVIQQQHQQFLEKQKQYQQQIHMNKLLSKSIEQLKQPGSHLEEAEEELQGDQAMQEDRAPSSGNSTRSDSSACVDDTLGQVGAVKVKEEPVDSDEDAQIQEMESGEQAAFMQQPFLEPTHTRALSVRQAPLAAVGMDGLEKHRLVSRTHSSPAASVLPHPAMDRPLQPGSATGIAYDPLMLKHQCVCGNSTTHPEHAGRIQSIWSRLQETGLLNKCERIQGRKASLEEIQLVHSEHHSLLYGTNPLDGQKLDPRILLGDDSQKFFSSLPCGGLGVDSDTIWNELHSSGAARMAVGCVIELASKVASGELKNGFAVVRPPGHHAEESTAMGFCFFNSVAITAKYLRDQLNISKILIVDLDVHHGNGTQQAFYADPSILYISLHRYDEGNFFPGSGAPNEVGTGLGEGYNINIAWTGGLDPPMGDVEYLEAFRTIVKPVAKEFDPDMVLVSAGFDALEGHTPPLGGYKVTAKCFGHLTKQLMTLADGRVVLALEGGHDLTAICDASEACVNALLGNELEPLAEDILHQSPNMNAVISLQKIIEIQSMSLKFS

Assay [1] has as its target brahma-related gene 1 protein (BRG1) (human (endogenous in primary human aortic VSMCs)) (UniProt P51532). Briefly: co-IP; sequential co-IP: 200 µg nuclear extract of VSMCs with RNAse inhibitor, treated with turbo DNAse I; first anti-BRG1 on A/G agarose beads, then biotinylated anti-HDAC9 on magnetic streptavidin beads; western blot. (Immunoblotting shows a protein as a band on a membrane.)

Assay [2] has the same target. Briefly: co-IP; 40 µg nuclear extract of human VSMCs (control, TGFR2 G357W or ACTA2 R179H expressing); anti-BRG1 antibody (5 µg) overnight at 4 C, Pierce Co-IP kit, A/G magnetic beads; western blot for HDAC9.

No constants are given. Whether binding was seen depends on the method and setting. In cells and extracts the contact can be indirect. Some binding calls cover weakened binding; strength is not graded here.

Take “histone deacetylase HDAC9 (from UniProt Q9UKV0 1-1011)”: the binding result in assay [1] and in assay [2] was “binds” in each case.
